Source: the supplement of paper PMC10849652
Some of the results follow.

The chains behind the UniProt entries cited, without tags or fusion partners. Where a name states a change or a piece, a line headed by the entry shows the natural chain unless it says otherwise.
UniProt Q96KG9: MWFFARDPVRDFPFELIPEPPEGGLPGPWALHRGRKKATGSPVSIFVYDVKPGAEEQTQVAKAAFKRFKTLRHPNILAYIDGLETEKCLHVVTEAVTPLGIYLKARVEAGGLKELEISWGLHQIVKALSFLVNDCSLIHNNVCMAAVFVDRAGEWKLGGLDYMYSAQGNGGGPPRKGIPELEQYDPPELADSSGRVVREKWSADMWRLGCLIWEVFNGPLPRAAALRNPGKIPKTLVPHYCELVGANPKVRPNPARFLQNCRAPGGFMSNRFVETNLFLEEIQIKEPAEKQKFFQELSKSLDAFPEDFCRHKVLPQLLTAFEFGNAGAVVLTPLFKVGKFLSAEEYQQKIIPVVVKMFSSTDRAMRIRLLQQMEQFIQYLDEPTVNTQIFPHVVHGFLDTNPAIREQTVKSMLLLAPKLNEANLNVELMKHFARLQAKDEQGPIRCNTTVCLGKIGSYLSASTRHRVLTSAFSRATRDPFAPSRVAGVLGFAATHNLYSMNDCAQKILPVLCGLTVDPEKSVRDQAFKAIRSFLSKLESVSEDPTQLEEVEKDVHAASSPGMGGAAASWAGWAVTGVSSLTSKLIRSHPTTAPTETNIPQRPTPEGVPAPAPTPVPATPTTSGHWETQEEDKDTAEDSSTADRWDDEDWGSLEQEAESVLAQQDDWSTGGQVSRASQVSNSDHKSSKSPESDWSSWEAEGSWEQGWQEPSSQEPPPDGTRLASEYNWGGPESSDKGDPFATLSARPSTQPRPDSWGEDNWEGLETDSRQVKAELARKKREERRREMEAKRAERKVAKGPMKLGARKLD
UniProt Q9NX18: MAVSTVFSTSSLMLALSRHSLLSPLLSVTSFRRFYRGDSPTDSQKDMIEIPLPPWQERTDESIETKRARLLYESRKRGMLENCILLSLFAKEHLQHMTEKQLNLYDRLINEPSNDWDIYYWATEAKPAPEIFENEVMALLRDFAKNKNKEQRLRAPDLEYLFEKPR
UniProt P31040: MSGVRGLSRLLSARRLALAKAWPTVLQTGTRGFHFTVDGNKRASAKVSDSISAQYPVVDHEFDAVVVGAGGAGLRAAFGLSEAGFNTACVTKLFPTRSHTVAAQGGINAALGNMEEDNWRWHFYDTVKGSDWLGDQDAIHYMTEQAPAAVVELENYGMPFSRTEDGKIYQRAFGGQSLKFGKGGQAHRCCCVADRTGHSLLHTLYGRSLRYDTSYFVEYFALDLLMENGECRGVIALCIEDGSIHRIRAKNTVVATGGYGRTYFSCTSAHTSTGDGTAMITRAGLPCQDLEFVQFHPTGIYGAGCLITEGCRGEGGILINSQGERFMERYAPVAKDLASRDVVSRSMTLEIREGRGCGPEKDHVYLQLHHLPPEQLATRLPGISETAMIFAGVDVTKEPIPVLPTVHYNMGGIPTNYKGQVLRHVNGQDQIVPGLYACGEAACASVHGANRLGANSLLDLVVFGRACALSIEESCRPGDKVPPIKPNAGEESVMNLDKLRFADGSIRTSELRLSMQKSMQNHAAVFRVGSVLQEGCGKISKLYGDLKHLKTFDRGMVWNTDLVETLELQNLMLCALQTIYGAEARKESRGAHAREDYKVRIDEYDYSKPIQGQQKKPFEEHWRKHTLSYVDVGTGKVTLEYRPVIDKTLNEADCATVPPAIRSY
UniProt Q9UHD8: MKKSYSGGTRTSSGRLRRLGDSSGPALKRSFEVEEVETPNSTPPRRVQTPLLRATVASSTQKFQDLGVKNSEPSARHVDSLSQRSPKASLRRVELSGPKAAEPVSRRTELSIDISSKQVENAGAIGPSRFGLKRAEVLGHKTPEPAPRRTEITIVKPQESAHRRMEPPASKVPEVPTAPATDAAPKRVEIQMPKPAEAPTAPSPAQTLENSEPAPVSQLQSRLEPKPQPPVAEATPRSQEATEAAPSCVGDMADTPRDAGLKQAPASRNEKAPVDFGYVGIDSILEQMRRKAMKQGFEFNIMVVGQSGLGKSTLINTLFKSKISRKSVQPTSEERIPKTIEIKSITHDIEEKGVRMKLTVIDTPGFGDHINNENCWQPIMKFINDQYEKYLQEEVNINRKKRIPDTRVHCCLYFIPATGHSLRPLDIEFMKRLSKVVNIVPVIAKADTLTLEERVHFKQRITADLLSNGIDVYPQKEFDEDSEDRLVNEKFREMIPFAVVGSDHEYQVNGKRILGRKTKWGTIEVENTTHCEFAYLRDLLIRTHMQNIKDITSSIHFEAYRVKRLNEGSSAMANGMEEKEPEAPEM
UniProt O43290: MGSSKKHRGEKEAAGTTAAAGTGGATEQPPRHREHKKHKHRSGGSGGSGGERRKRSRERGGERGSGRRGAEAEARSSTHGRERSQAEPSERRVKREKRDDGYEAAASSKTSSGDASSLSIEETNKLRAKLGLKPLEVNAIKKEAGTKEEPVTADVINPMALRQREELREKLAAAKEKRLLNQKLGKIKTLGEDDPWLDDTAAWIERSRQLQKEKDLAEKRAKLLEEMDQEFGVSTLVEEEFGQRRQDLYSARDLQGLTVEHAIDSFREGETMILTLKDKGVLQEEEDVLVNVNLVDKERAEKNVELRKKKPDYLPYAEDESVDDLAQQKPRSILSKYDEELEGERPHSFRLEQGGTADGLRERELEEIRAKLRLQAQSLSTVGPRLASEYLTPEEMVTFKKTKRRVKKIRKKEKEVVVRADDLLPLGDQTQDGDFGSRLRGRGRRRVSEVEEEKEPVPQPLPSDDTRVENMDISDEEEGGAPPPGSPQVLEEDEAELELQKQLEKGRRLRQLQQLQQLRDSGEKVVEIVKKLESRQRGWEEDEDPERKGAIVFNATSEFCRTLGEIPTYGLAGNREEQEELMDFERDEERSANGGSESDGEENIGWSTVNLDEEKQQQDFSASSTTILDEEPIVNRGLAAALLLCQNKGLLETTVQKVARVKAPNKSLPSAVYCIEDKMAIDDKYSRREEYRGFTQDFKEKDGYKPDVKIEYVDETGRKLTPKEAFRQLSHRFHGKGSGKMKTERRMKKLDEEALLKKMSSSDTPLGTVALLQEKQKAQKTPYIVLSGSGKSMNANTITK
UniProt P21912: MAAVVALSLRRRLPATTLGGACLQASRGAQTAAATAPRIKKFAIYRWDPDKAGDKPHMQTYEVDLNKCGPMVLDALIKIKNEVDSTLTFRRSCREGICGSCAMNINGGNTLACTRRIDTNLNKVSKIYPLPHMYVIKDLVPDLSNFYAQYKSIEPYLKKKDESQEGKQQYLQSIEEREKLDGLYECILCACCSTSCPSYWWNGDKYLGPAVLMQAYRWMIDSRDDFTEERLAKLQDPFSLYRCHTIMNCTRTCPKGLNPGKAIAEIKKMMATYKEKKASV
UniProt Q9UBV2: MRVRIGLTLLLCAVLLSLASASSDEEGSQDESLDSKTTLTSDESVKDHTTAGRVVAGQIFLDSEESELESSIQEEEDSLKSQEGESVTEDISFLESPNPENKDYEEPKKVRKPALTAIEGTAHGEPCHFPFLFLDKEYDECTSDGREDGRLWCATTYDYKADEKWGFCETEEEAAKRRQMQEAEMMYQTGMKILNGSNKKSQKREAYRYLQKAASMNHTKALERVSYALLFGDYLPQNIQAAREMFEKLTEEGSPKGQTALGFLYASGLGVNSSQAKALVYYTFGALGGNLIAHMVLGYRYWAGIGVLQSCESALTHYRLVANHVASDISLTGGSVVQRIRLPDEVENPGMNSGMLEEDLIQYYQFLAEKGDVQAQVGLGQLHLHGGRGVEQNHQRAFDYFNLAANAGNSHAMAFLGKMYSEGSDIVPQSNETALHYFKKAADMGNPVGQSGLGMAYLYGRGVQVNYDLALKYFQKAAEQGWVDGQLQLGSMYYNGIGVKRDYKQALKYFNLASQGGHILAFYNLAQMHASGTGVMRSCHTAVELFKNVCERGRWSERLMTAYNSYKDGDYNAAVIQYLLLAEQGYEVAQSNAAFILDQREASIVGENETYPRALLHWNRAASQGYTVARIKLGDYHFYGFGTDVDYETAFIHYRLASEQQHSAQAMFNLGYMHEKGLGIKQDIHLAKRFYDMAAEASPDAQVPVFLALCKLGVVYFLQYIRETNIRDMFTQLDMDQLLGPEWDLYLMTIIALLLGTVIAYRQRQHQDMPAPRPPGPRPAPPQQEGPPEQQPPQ
UniProt Q9BQE4, whole entry, looked up: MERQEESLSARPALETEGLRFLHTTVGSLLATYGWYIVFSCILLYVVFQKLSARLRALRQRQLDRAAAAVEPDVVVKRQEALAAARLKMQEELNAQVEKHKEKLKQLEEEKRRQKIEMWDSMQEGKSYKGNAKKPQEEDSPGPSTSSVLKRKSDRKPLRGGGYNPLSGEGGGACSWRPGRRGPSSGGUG
UniProt Q14108: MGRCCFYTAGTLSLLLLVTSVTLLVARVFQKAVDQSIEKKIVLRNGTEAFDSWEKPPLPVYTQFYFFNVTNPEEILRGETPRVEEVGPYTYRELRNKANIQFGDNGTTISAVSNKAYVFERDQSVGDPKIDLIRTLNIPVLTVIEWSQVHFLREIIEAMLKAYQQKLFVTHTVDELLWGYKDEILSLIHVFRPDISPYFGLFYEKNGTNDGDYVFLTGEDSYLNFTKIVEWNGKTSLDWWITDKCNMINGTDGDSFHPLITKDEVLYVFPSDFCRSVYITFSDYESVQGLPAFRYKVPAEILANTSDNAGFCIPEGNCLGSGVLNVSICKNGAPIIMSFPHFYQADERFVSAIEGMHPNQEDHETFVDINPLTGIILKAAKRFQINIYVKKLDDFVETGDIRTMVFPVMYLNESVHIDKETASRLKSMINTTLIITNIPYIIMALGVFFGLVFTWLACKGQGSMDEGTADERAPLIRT
UniProt Q14151: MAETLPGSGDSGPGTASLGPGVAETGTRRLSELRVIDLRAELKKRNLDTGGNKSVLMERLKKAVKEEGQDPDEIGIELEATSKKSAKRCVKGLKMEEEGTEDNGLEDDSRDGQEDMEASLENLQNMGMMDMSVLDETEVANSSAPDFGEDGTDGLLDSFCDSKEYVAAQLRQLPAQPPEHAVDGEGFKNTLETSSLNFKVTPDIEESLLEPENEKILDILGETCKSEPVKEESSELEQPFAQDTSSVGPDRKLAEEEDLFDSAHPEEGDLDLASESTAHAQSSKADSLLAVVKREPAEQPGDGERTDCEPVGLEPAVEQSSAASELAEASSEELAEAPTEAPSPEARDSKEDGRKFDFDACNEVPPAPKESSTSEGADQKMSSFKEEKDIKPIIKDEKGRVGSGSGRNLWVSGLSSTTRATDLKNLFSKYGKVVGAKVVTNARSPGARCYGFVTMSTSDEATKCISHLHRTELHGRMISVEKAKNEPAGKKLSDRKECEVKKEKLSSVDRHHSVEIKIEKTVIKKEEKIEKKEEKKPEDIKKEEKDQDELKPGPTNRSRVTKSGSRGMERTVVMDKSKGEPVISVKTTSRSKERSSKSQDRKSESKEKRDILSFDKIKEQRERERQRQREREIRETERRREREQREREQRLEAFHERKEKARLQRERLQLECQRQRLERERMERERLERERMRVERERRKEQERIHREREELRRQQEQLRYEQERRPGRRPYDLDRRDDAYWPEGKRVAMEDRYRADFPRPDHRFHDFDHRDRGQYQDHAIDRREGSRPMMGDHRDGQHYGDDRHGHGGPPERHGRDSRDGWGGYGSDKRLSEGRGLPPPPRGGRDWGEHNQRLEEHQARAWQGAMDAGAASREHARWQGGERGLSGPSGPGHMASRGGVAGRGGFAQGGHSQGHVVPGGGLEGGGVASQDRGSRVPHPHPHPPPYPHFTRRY
UniProt Q8WU76: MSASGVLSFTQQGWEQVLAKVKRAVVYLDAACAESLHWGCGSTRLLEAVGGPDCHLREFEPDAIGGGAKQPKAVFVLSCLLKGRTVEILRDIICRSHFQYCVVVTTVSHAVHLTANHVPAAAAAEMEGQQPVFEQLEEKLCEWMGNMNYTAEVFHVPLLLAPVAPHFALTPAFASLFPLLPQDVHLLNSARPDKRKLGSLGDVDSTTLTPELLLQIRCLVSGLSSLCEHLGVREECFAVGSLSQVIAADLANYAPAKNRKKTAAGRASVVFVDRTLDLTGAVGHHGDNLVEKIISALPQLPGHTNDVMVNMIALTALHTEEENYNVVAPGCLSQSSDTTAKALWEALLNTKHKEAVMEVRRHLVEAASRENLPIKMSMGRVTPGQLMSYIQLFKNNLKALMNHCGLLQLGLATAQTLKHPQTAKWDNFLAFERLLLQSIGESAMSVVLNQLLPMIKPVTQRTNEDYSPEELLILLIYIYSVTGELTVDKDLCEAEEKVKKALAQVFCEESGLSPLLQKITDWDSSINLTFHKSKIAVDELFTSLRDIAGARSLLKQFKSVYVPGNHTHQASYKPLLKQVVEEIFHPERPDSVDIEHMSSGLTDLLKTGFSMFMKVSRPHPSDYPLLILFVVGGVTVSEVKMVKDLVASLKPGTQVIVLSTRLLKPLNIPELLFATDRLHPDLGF

What was measured:
Assay in all cases: log2 fold change, soluble protein after heating vs DMSO (PISA); higher = thermal stabilisation; K562 lysate, 10 uM; active = over 0.2 and 3.5 SD of the protein, either way, in both replicates (recomputed)
erlotinib = compound: C#Cc1cccc(Nc2ncnc3cc(OCCOC)c(OCCOC)cc23)c1 [erlotinib]
How it was run: (§1)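 Dounce homogenisation of K562 pellets in PBS pH 7.4 with 1 mM MgCl2 produced a crude extract, used at 1 mg/mL protein. Exposure to 10 μM compound lasted 30 min, and aliquots were then heated for 3 min across 48°C-58°C, pooled and brought to 0.5% NP-40 at 4°C. The supernatant after 21,000xg for 90 min was quantified by TMTpro 16plex LC-MS/MS with channel sums equalised. Duplicate values are given as log-two fold change in thermal stability relative to solvent controls.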

[1] = compound: C/C(=N\NC(=O)C1=CC(=CC=C1)S(=O)(=O)N2CCOCC2)/C3=C(C=CC(=C3)Cl)O
How it was run: as §1

[2] = compound: C1=CC(=CC=C1C2=NC3=C(N2)C=C(C=C3)C(=O)N)OC4=CC=C(C=C4)Cl
How it was run: as §1

[3] = compound: C1=CC2=C(C=CC(=C2)/C=C\3/C(=O)NC(=NCC4=CC=CS4)S3)N=C1
How it was run: as §1

[4] = compound: C1=CC2=NC=CN=C2C=C1/C=C/3\C(=O)NC(=O)S3
How it was run: as §1

[5] = compound: C1=CC=C(C=C1)C2=NC(=C(N2)C3=CC=NC=C3)C4=CC(=C(C=C4)Cl)O
How it was run: as §1

[6] = compound: C1=CC=C2C(=C1)C3=NNC4=CC=CC(=C43)C2=O
How it was run: as §1

[7] = compound: C1CCN(C1)C(=O)NC2=CC=CC(=C2)NC3=NC=C(C(=N3)NCCC4=CN=CN4)Br
How it was run: as §1

[8] = compound: C1CN(CCC1(CC2=CC=C(C=C2)Cl)N)C3=NC=NC4=C3C=CN4
How it was run: as §1

IRAK-1-4 Inhibitor I = compound: C1COCCN1CCN2C3=CC=CC=C3N=C2NC(=O)C4=CC(=CC=C4)[N+](=O)[O-] [IRAK-1-4 Inhibitor I]
How it was run: as §1

ibrutinib = compound: C=CC(=O)N1CCC[C@@H](n2nc(-c3ccc(Oc4ccccc4)cc3)c3c(N)ncnc32)C1 [ibrutinib]
How it was run: as §1

[9] = compound: CC(=O)c1cnc2ccc(-c3cc(Cl)c(O)c(Cl)c3)nc2c1N[C@H]1CC[C@H](CN(C)C)CC1
How it was run: as §1

ralimetinib = compound: CC(C)(C)Cn1c(N)nc2ccc(-c3[nH]c(C(C)(C)C)nc3-c3ccc(F)cc3)nc21 [ralimetinib]
How it was run: as §1

[10] = compound: CC(C)(O)CC(=O)NCCn1ccc2ncnc(Nc3ccc(Oc4cccc(C(F)(F)F)c4)c(Cl)c3)c21
How it was run: as §1

[11] = compound: CC(C)C1=C2N=C(C=C(N2N=C1)NCC3=CC=CC=C3)NCCCCCCN
How it was run: as §1

[12] = compound: CC1=C(C(CC(=O)N1)C2=CC=C(C=C2)C(F)(F)F)C(=O)NC3=C(C=C4C(=C3)C=NN4)F
How it was run: as §1

[13] = compound: CC1=C(C2=C(C=C1)C(=O)C3=CC=CC=C3N2CCCN)C
How it was run: as §1

[14] = compound: CC1=C(C=C(C=C1)NC(=O)C2=CC(=CC=C2)C(C)(C)C#N)NC3=CC4=C(C=C3)N=CN(C4=O)C
How it was run: as §1

[15] = compound: CC1=C(C=C(C=C1)NC(=O)C2=CC(=CC=C2)N(C)C)NC(=O)C3=CC=C(C=C3)O
How it was run: as §1

[16] = compound: CC1=CC=C(C=C1)SC2=C3C=C(SC3=CN=C2)C(=O)N
How it was run: as §1

Measured: log2 fold change

SCYL1 (UniProt Q96KG9)
inactive: erlotinib -0.003 | [1] -0.024 | [2] 0.088 | [3] -0.024 | [4] -0.015 | [5] 0.006 | [6] 0.023 | [7] -0.079 | [8] -0.052 | IRAK-1-4 Inhibitor I -0.016 | ibrutinib 0.01 | [9] -0.042 | ralimetinib 0.068 | [10] 0.068 | [11] -0.006 | [12] 0.033 | [13] -0.004 | [14] 0.007 | [15] -0.014 | [16] 0.009

SDHAF2 (UniProt Q9NX18)
inactive: erlotinib 0.057 | [1] -0.055 | [2] 0.018 | [3] -0.006 | [4] -0.114 | [5] -0.02 | [6] -0.007 | [7] 0.009 | [8] 0.015 | IRAK-1-4 Inhibitor I 0.044 | ibrutinib 0.096 | [9] 0.019 | ralimetinib -0.04 | [10] -0.08 | [11] -0.02 | [12] -0.003 | [13] -0.011 | [14] 0.06 | [15] 0.015 | [16] 0.012

SDHA (UniProt P31040)
inactive: erlotinib 0.001 | [1] 0.034 | [2] 0.109 | [3] -0.006 | [4] 0.005 | [5] -0.005 | [6] 0.025 | [7] -0.009 | [8] 0.004 | IRAK-1-4 Inhibitor I 0.011 | ibrutinib -0.015 | [9] 0 | ralimetinib 0.043 | [10] 0.049 | [11] -0.01 | [12] 0.004 | [13] 0.008 | [14] 0.014 | [15] -0.015 | [16] 0.002

Reprinted from the results shown (two entries):
SCYL1 (UniProt Q96KG9)
inactive: erlotinib -0.003 | [1] -0.024 | [2] 0.088 | [3] -0.024 | [4] -0.015 | [5] 0.006 | [6] 0.023 | [7] -0.079 | [8] -0.052 | IRAK-1-4 Inhibitor I -0.016 | ibrutinib 0.01 | [9] -0.042 | ralimetinib 0.068 | [10] 0.068 | [11] -0.006 | [12] 0.033 | [13] -0.004 | [14] 0.007 | [15] -0.014 | [16] 0.009

SDHAF2 (UniProt Q9NX18)
inactive: erlotinib 0.057 | [1] -0.055 | [2] 0.018 | [3] -0.006 | [4] -0.114 | [5] -0.02 | [6] -0.007 | [7] 0.009 | [8] 0.015 | IRAK-1-4 Inhibitor I 0.044 | ibrutinib 0.096 | [9] 0.019 | ralimetinib -0.04 | [10] -0.08 | [11] -0.02 | [12] -0.003 | [13] -0.011 | [14] 0.06 | [15] 0.015 | [16] 0.012

Remaining list, next part

SEPTIN9 (UniProt Q9UHD8)
inactive: erlotinib -0.005 | [1] 0.004 | [2] 0.001 | [3] 0.003 | [4] -0.02 | [5] -0.012 | [6] 0.101 | [7] 0.008 | [8] -0.01 | IRAK-1-4 Inhibitor I 0.005 | ibrutinib 0.027 | [9] -0.011 | ralimetinib 0.005 | [10] -0.026 | [11] -0.017 | [12] -0.005 | [13] -0.008 | [14] 0.001 | [15] -0.017 | [16] -0.008

SEMA4B (UniProt Q9NPR2)
inactive: erlotinib 0.07 | [1] 0.023 | [2] -0.112 | [3] 0.062 | [4] 0.053 | [5] -0.049 | [6] -0.342 | [7] 0.008 | [8] 0.013 | IRAK-1-4 Inhibitor I -0.012 | ibrutinib 0.097 | [9] -0.054 | ralimetinib -0.099 | [10] -0.021 | [11] 0.037 | [12] 0.093 | [13] -0.092 | [14] -0.042 | [15] 0.023 | [16] 0.011

SCRN2 (UniProt Q96FV2)
inactive: erlotinib -0.01 | [1] -0.099 | [2] -0.066 | [3] -0.059 | [4] 0.01 | [5] 0.091 | [6] -0.117 | [7] -0.04 | [8] -0.007 | IRAK-1-4 Inhibitor I -0.099 | ibrutinib -0.033 | [9] 0.028 | ralimetinib 0.03 | [10] -0.037 | [11] -0.03 | [12] -0.066 | [13] -0.078 | [14] 0.047 | [15] -0.014 | [16] -0.077

SART1 (UniProt O43290)
inactive: erlotinib -0.006 | [1] -0.072 | [2] -0.01 | [3] -0.002 | [4] 0 | [5] 0.014 | [6] 0.014 | [7] -0.001 | [8] -0.021 | IRAK-1-4 Inhibitor I 0.007 | ibrutinib 0.025 | [9] 0 | ralimetinib -0.026 | [10] -0.013 | [11] 0.031 | [12] -0.005 | [13] -0.043 | [14] 0.026 | [15] -0.016 | [16] -0.014

SDHB (UniProt P21912)
inactive: erlotinib 0.009 | [1] 0.165 | [2] 0.086 | [3] -0.003 | [4] -0.02 | [5] 0 | [6] 0.075 | [7] -0.006 | [8] 0.011 | IRAK-1-4 Inhibitor I 0.001 | ibrutinib 0.008 | [9] -0.008 | ralimetinib -0.002 | [10] 0.012 | [11] 0.003 | [12] -0.001 | [13] 0 | [14] 0.008 | [15] -0.017 | [16] -0.012

S100PBP (UniProt Q96BU1)
inactive: erlotinib -0.071 | [1] -0.157 | [2] 0.027 | [3] 0.006 | [4] -0.081 | [5] 0.017 | [6] -0.105 | [7] -0.206 | [8] -0.085 | IRAK-1-4 Inhibitor I 0.02 | ibrutinib -0.056 | [9] -0.011 | ralimetinib 0.038 | [10] -0.019 | [11] -0.083 | [12] -0.087 | [13] -0.004 | [14] 0.088 | [15] -0.001 | [16] 0.057

SEL1L (UniProt Q9UBV2)
inactive: erlotinib -0.048 | [1] -0.033 | [2] -0.009 | [3] -0.007 | [4] -0.012 | [5] -0.004 | [6] -0.084 | [7] 0.009 | [8] 0 | IRAK-1-4 Inhibitor I 0.012 | ibrutinib 0.049 | [9] -0.008 | ralimetinib 0.016 | [10] -0.028 | [11] -0.007 | [12] 0.057 | [13] -0.078 | [14] -0.027 | [15] -0.006 | [16] 0.005

SELENOS (UniProt Q9BQE4)
inactive: erlotinib 0 | [1] -0.01 | [2] 0 | [3] -0.046 | [4] -0.048 | [5] -0.016 | [6] 0.011 | [7] 0.005 | [8] 0.031 | IRAK-1-4 Inhibitor I 0.017 | ibrutinib 0.071 | [9] -0.001 | ralimetinib -0.006 | [10] 0.002 | [11] 0.02 | [12] 0.021 | [13] -0.042 | [14] -0.012 | [15] 0.031 | [16] -0.048

SCARB2 (UniProt Q14108)
inactive: erlotinib -0.052 | [1] 0.022 | [2] 0.024 | [3] 0.024 | [4] 0.004 | [5] 0.017 | [6] 0.048 | [7] 0.029 | [8] -0.065 | IRAK-1-4 Inhibitor I 0.004 | ibrutinib -0.009 | [9] -0.023 | ralimetinib -0.012 | [10] -0.019 | [11] -0.045 | [12] 0.026 | [13] -0.025 | [14] 0.017 | [15] 0.008 | [16] -0.025

SART3, A0A499FI31
inactive: erlotinib -0.006 | [1] -0.033 | [2] -0.027 | [3] 0.029 | [4] -0.007 | [5] 0.01 | [6] -0.004 | [7] -0.002 | [8] -0.007 | IRAK-1-4 Inhibitor I -0.01 | ibrutinib -0.031 | [9] -0.007 | ralimetinib 0.019 | [10] 0.001 | [11] 0.001 | [12] -0.015 | [13] 0.018 | [14] 0.022 | [15] 0.017 | [16] 0.001

SAFB2 (UniProt Q14151)
inactive: erlotinib -0.002 | [1] -0.03 | [2] 0.003 | [3] 0.002 | [4] 0.017 | [5] 0.02 | [6] 0.004 | [7] -0.018 | [8] -0.027 | IRAK-1-4 Inhibitor I -0.012 | ibrutinib 0.037 | [9] -0.008 | ralimetinib -0.02 | [10] -0.021 | [11] 0.025 | [12] 0.012 | [13] -0.011 | [14] 0.005 | [15] 0.002 | [16] -0.013

SCFD2 (UniProt Q8WU76)
inactive: erlotinib 0.033 | [1] -0.008 | [2] 0.006 | [3] -0.018 | [4] 0.014 | [5] -0.008 | [6] -0.057 | [7] -0.021 | [8] 0.049 | IRAK-1-4 Inhibitor I -0.001 | ibrutinib -0.037 | [9] -0.009 | ralimetinib 0.001 | [10] -0.065 | [11] 0.005 | [12] 0.02 | [13] -0.003 | [14] 0.031 | [15] 0.01 | [16] 0.006

SECISBP2L (UniProt Q93073)
inactive: erlotinib 0.088 | [1] -0.013 | [2] 0.023 | [3] 0.097 | [4] -0.358 | [5] 0.008 | [6] 0.144 | [7] 0.121 | [8] 0.077 | IRAK-1-4 Inhibitor I 0.12 | ibrutinib -0.091 | [9] -0.016 | ralimetinib -0.024 | [10] 0.021 | [11] 0.014 | [12] -0.062 | [13] -0.172 | [14] -0.057 | [15] 0.027 | [16] 0.074
